# Results deposited as PubChem BioAssay AID504808 (Drosophila RNAi Screening Center, 2011).
# Test: 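Fly genes required to hold E2F transcription in check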 (primary screen)
# Cell system: Drosophila S2 cells
# Reagent: long dsRNA against Drosophila genes
# Read-out: 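Firefly luciferase driven by E2F sites, normalised to Renilla luciferase on the same minimal promoter, measured by plate reader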
# Scale: E2F firefly: higher = more E2F reporter activity; Renilla normaliser: higher = more normaliser reporter signal
# Call rule: 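a knock-down counted as active when the firefly/Renilla E2F signal rose above 50%, a threshold chosen arbitrarily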
# The deposit covers about 21,000 reagents; shown is an unselected part of those with a known target gene and a result. Over the whole deposit, 18 (0.084%) are marked active. 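Raw counts without plate normalisation, one of two replicates; the ratio scores behind the calls were not deposited.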 A plus sign joins genes that one reagent is predicted to hit. Not stated in the record: the amount of reagent, the time to read-out.
"E2F firefly, rep 1","Renilla normaliser, rep 1",outcome,target gene,amplicon
1.29e5,6775,inactive,Vps16B (Vacuolar protein sorting 16B),DRSC15304
1.14e5,5904,inactive,Trf4-2 (Topoisomerase related function 4-2),DRSC15237
82238,3763,inactive,CG10252,DRSC14221
1.12e5,5701,inactive,gpp (grappa),DRSC12515
1.10e5,4828,inactive,gpp (grappa),DRSC12516
1.14e5,5111,inactive,Abd-B (Abdominal B),DRSC14098
1.18e5,6133,inactive,Abd-B (Abdominal B),DRSC14337
1.14e5,5673,inactive,dec (defective chorion),DRSC18759
1.31e5,6991,inactive,CG7582,DRSC16261
1.10e5,4300,inactive,CG13575,DRSC04211
68728,3290,inactive,ssp5 (short spindle 5),DRSC14955
1.43e5,4291,inactive,ome (omega),DRSC09322
1.48e5,7435,inactive,ome (omega),DRSC10282
1.48e5,6342,inactive,ome (omega),DRSC11380
85136,3608,inactive,Pif1 (Pif1 DNA helicase),DRSC00582
1.20e5,6148,inactive,CG9743,DRSC16552
1.74e5,5830,inactive,CG13690,DRSC00359
67713,3269,inactive,CG5746,DRSC15868
1.15e5,6493,inactive,CG42327,DRSC14936
1.35e5,6319,inactive,CG42327,DRSC14937
96838,4389,inactive,CG12605,DRSC08286
1.26e5,5221,inactive,ave (aveugle),DRSC05502
96128,3988,inactive,CG5043,DRSC02805
1.40e5,7084,inactive,CG9837,DRSC16573
1.51e5,5337,inactive,CG13999,DRSC02331
1.15e5,6051,inactive,Rgl (Ral guanine nucleotide dissociation stimulator-like),DRSC11267
1.66e5,5809,inactive,CG8568,DRSC20113
1.34e5,6236,inactive,Agpat1 (1-Acylglycerol-3-phosphate O-acyltransferase 1),DRSC19879
1.39e5,6078,inactive,Agpat1 (1-Acylglycerol-3-phosphate O-acyltransferase 1),DRSC19880
2123,912,inactive,dgt1 (dim gamma-tubulin 1),DRSC15301
80566,6017,inactive,ppk15 (pickpocket 15),DRSC14733
1.42e5,7025,inactive,Rab23,DRSC12305
1.24e5,4829,inactive,CG3894,DRSC01762
1.37e5,6720,inactive,CG3894,DRSC04012
89046,2880,inactive,CG3894,DRSC04429
1.21e5,4516,inactive,CG32236,DRSC08117
71595,3895,inactive,CG4080,DRSC10398
78539,3739,inactive,CG3257,DRSC04351
67224,3182,inactive,beg (bad egg),DRSC10923
1.62e5,7553,inactive,Eig71Ei,DRSC11156
1.37e5,4724,inactive,Spn43Ab (Serpin 43Ab),DRSC06781
82738,3707,inactive,CG3702,DRSC00628
1.46e5,5150,inactive,Art8 (Arginine methyltransferase 8),DRSC02530
99176,4323,inactive,sNPF (short neuropeptide F precursor),DRSC02309
1.21e5,5591,inactive,CG2680,DRSC18466
1.03e5,3593,inactive,Blos1,DRSC05970
68358,5389,inactive,RpL38 (Ribosomal protein L38),DRSC07818
99894,4236,inactive,Polr1C (RNA polymerase I and III subunit C),DRSC02719
1838,860,inactive,Vps26 (Vacuolar protein sorting 26),DRSC18555
1.55e5,5481,inactive,mtDNA-helicase (mitochondrial DNA helicase),DRSC02912
67177,3704,inactive,CG13458,DRSC10005
1.43e5,7205,inactive,CG7166,DRSC11809
72077,3906,inactive,Hydr2 (alpha/beta hydrolase2),DRSC00607
99108,4155,inactive,CG7386,DRSC10832
77407,3687,inactive,noc (no ocelli),DRSC03580
96585,4086,inactive,CG7289,DRSC00697
1.37e5,5267,inactive,Hers + amn,DRSC20306
48809,2616,inactive,CG14712,DRSC14935
1.37e5,4467,inactive,CG32373,DRSC08895
1.03e5,4093,inactive,MCU (Mitochondrial calcium uniporter),DRSC10339
1.00e5,4778,inactive,Kaz1-ORFB + Kaz1-ORFA,DRSC08669
95019,4342,inactive,ninaD (neither inactivation nor afterpotential D),DRSC02886
1.58e5,6866,inactive,Irbp (Inverted repeat-binding protein),DRSC17007
70318,3756,inactive,Gel (Gelsolin),DRSC12350
87810,2331,inactive,CG4615,DRSC17491
7040,920,inactive,CG4615,DRSC18376
74388,3736,inactive,puf (puffyeye),DRSC15875
93373,3901,inactive,Cpr47Eg (Cuticular protein 47Eg),DRSC07330
1.07e5,5194,inactive,Octbeta1R (Octopamine beta1 receptor),DRSC16134
1.31e5,3730,inactive,tfc (triforce),DRSC07953
1.23e5,3853,inactive,tfc (triforce),DRSC07954
70132,3270,inactive,tfc (triforce),DRSC08626
77139,3546,inactive,RYBP (Ring and YY1 Binding Protein),DRSC04117
1.44e5,5469,inactive,Trs23 (TRAPP subunit 23),DRSC03190
1.48e5,4707,inactive,Spn28Da (Serpin 28Da),DRSC02162
1.71e5,5943,inactive,CG33453,DRSC05782
1.00e5,4134,inactive,CG13965,DRSC02307
1.56e5,7387,inactive,CtsK1 (Cathepsin K1),DRSC08742
1.50e5,4568,inactive,Or46a (Odorant receptor 46a),DRSC07489
1.77e5,5121,inactive,Or46a (Odorant receptor 46a),DRSC07490
1.34e5,4700,inactive,aPKC (atypical protein kinase C),DRSC05515
97367,4140,inactive,aPKC (atypical protein kinase C),DRSC07639
3055,192,inactive,CG10139,DRSC05972
1.11e5,5634,inactive,Ssl2 (Strictosidine synthase-like 2),DRSC14395

An excerpt from above, limited to “E2F firefly, rep 1”:
CG14712 [DRSC14935] = 48809
CG32373 [DRSC08895] = 1.37e5
MCU (Mitochondrial calcium uniporter) [DRSC10339] = 1.03e5
Kaz1-ORFB + Kaz1-ORFA [DRSC08669] = 1.00e5
ninaD (neither inactivation nor afterpotential D) [DRSC02886] = 95019
Irbp (Inverted repeat-binding protein) [DRSC17007] = 1.58e5
Gel (Gelsolin) [DRSC12350] = 70318
CG4615 [DRSC17491] = 87810
CG4615 [DRSC18376] = 7040
puf (puffyeye) [DRSC15875] = 74388
Cpr47Eg (Cuticular protein 47Eg) [DRSC07330] = 93373
Octbeta1R (Octopamine beta1 receptor) [DRSC16134] = 1.07e5
